Article PMC10620401
These are yes or no findings as the source states them, for the method shown. In cells and extracts the contact can be indirect. Some results given as binding are weak or reduced against the parent protein; the word gives no strength.

Chains of the proteins cited; added tags and fusions are not shown. Lines headed by an entry give the natural chain unless they say otherwise; changes in a name come on top.
UniProt Q6IAA8: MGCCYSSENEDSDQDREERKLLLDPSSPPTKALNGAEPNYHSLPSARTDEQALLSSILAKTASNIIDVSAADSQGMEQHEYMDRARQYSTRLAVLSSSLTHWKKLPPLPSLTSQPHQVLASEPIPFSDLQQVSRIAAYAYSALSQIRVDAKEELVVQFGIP
UniProt P27449: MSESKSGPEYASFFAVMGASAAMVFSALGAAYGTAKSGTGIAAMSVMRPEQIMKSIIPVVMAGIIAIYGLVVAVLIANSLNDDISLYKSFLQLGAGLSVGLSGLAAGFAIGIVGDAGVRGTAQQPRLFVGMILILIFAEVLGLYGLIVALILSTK

Target: FLAG-tagged p18 (UniProt Q6IAA8)
Test: co-IP; HEK293T cells with or without 1 mM D-mannose for 24 h; lysed in IP buffer, supernatants immunoprecipitated with the indicated antibodies overnight at 4 °C, protein A or G agarose beads for 3 h, five washes with IP buffer, immunoblot

## HA-tagged V0C (from UniProt P27449 1-155)
  binding: binds
